The source of these data is publication PMC5413979 (Nature Communications, 2017).

The target in the assay is T1, VcINDY (Vibrio cholerae, UniProt Q9KNE0).
T1 construct: gene VC_A0025
As to the kind of experiment: biochemical.

What is called inhibition is the change of the read-out against control, counted positive when it falls. High values mean a response far below the control, low ones a response near the control. Compound `O=C(O)CC(O)(CC(=O)O)C(=O)O` [citrate] yielded an inhibition at 95000 µM below 20%.
